Measured values published in article PMC12101078.
No constants are given. Whether binding was seen depends on the method and setting. In cells and extracts the contact can be indirect. Some results given as binding are weak or reduced against the parent protein; the word gives no strength. For some assays here: Tags and fused reporters may be left off the sequences shown.

T1: Pex32-3xHA (S. cerevisiae) (UniProt P38292)
T1 sequence: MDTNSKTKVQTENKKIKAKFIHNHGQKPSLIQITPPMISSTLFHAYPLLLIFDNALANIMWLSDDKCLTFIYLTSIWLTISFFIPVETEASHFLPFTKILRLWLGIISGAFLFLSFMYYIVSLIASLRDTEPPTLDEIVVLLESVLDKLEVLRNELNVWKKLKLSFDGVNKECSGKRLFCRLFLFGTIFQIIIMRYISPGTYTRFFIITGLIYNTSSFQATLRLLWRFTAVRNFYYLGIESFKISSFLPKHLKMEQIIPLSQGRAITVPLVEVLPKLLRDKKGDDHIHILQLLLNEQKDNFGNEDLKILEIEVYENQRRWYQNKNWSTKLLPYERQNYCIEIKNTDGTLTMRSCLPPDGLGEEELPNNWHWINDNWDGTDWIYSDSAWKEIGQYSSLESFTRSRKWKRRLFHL

T2: Pex28-13xMyc (S. cerevisiae) (UniProt P38848)
T2 sequence: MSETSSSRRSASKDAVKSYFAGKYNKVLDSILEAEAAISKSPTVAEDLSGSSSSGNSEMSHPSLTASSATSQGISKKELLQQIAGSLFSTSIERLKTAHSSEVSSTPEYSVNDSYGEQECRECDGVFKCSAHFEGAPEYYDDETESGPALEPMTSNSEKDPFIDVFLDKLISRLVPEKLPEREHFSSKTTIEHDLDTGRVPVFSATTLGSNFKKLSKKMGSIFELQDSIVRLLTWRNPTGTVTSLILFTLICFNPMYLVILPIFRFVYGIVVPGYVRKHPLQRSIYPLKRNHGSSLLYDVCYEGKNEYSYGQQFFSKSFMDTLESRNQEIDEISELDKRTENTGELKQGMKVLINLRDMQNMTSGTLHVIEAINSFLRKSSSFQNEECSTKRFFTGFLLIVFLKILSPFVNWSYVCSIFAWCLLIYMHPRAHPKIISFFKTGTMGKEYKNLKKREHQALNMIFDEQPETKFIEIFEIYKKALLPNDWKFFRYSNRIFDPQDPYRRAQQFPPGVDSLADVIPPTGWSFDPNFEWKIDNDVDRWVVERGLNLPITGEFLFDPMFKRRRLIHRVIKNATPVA

T3: Pex29-V5 (S. cerevisiae) (UniProt Q03370)
T3 sequence: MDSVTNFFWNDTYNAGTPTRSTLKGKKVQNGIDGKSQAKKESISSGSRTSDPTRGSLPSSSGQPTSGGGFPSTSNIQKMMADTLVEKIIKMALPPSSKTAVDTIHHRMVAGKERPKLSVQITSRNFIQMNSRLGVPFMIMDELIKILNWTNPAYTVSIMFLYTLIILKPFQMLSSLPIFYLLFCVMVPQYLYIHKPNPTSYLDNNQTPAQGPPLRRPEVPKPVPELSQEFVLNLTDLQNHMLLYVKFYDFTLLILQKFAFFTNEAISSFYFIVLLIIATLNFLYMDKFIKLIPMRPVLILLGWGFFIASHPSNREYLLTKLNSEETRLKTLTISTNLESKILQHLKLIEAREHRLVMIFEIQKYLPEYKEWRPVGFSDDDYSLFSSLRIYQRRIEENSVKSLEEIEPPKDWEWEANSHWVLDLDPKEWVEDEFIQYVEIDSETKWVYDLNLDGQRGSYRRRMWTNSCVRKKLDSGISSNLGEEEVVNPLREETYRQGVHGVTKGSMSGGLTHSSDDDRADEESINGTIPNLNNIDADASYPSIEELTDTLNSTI


What was measured:
Experiment in all cases: co-IP; crude membrane fraction of yeast solubilised with 1% DMNG in 50 mM Tris-HCl pH 7.4, 200 mM NaCl, 1 mM EDTA; tagged protein isolated 2 h at 4°C on anti-HA, anti-V5 or anti-Myc magnetic beads, washed with 0.02% DMNG; Pex30 detected by immunoblot with anti-Pex30
[1] = target: T1, Pex32-3xHA (S. cerevisiae)
[2] = target: T2, Pex28-13xMyc (S. cerevisiae)
Pex29-V5 (S. cerevisiae) = target: T3, Pex29-V5 (S. cerevisiae)

Binder | binding [1] | binding [2] | binding (Pex29-V5 (S. cerevisiae))
Pex30 (protein, UniProt Q06169 1-523) MSGNTTNVHETRAKFAETLQPRIGGNTTKVIRAALEKNEAESGVSEDNDNGSLEKVNVATSPLLTSTPPTISKALVKLYPYLILIDEFLNVVTWTGKNIWSSVLMLCLFITTVEYFETLVKYFGHLAIIAILWGYSLLDNYIEGTLSSSPTLEDIALLMNRVSLKSDILLSPMVNLGTQDIQRLLYTTVILSPIYVMITWLLLPPRSLMLMVGMFLLTYHSPWSKVARRLLWKFKIVRLLVFYVTGLDLGGINKDQGIFATVQKQVKKLASTENSNGVLSDSKPIRFTYVLYENQRRWLGIGWKPSMLSYERTPWTDEFLNEAPSPENFHLPEETNTMVWRWVDKTWRLDMTNDGAIQVPNSKARTSADPSPDEGFIYYDNTWKKPSKEDSFSKYTRRRRWVRTAELVKTSDFDESVINSNRNSAIEQKVEENSTNGLTAEQELGSNKQEKDNAKKVGEPTTEETKEFAEASNINEGEFERISSTDEEVLKSRARDRLAKVLDDTEEKEQSNPTIGRDSKKAV | binds | binds | binds
Pex30^S446A (protein, UniProt Q06169 1-523) MSGNTTNVHETRAKFAETLQPRIGGNTTKVIRAALEKNEAESGVSEDNDNGSLEKVNVATSPLLTSTPPTISKALVKLYPYLILIDEFLNVVTWTGKNIWSSVLMLCLFITTVEYFETLVKYFGHLAIIAILWGYSLLDNYIEGTLSSSPTLEDIALLMNRVSLKSDILLSPMVNLGTQDIQRLLYTTVILSPIYVMITWLLLPPRSLMLMVGMFLLTYHSPWSKVARRLLWKFKIVRLLVFYVTGLDLGGINKDQGIFATVQKQVKKLASTENSNGVLSDSKPIRFTYVLYENQRRWLGIGWKPSMLSYERTPWTDEFLNEAPSPENFHLPEETNTMVWRWVDKTWRLDMTNDGAIQVPNSKARTSADPSPDEGFIYYDNTWKKPSKEDSFSKYTRRRRWVRTAELVKTSDFDESVINSNRNSAIEQKVEENSTNGLTAEQELGANKQEKDNAKKVGEPTTEETKEFAEASNINEGEFERISSTDEEVLKSRARDRLAKVLDDTEEKEQSNPTIGRDSKKAV | – | – | binds
Pex30^S446D (protein, UniProt Q06169 1-523) MSGNTTNVHETRAKFAETLQPRIGGNTTKVIRAALEKNEAESGVSEDNDNGSLEKVNVATSPLLTSTPPTISKALVKLYPYLILIDEFLNVVTWTGKNIWSSVLMLCLFITTVEYFETLVKYFGHLAIIAILWGYSLLDNYIEGTLSSSPTLEDIALLMNRVSLKSDILLSPMVNLGTQDIQRLLYTTVILSPIYVMITWLLLPPRSLMLMVGMFLLTYHSPWSKVARRLLWKFKIVRLLVFYVTGLDLGGINKDQGIFATVQKQVKKLASTENSNGVLSDSKPIRFTYVLYENQRRWLGIGWKPSMLSYERTPWTDEFLNEAPSPENFHLPEETNTMVWRWVDKTWRLDMTNDGAIQVPNSKARTSADPSPDEGFIYYDNTWKKPSKEDSFSKYTRRRRWVRTAELVKTSDFDESVINSNRNSAIEQKVEENSTNGLTAEQELGDNKQEKDNAKKVGEPTTEETKEFAEASNINEGEFERISSTDEEVLKSRARDRLAKVLDDTEEKEQSNPTIGRDSKKAV | – | – | binds
